This is one part of the list.
Compound: O=C1NC(=O)C(c2cnc3ccccn23)=C1c1cn2c3c(cc(F)cc13)CN(C(=O)N1CCCCC1)CC2
Test: log2 fold change, soluble protein after heating vs DMSO (PISA); higher = thermal stabilisation; K562 lysate, 10 uM; active = over 0.2 and 3.5 SD of the protein, either way, in both replicates (recomputed)
Method in brief: (§1)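 Quantification was by TMTpro 16plex LC-MS/MS with equalised channel sums, applied to the supernatant after 21,000xg for 90 min. Samples were crude K562 extract at 1 mg/mL protein in PBS pH 7.4 with 1 mM MgCl2, treated with 10 μM compound for 30 min, heated for 3 min across 48°C-58°C, pooled and brought to 0.5% NP-40 at 4°C. Values are log-two fold changes in thermal stability relative to solvent controls, from duplicates.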

The chains behind the UniProt entries cited, without tags or fusion partners. Where a name states a change or a piece, a line headed by the entry shows the natural chain unless it says otherwise.
UniProt Q8TD43: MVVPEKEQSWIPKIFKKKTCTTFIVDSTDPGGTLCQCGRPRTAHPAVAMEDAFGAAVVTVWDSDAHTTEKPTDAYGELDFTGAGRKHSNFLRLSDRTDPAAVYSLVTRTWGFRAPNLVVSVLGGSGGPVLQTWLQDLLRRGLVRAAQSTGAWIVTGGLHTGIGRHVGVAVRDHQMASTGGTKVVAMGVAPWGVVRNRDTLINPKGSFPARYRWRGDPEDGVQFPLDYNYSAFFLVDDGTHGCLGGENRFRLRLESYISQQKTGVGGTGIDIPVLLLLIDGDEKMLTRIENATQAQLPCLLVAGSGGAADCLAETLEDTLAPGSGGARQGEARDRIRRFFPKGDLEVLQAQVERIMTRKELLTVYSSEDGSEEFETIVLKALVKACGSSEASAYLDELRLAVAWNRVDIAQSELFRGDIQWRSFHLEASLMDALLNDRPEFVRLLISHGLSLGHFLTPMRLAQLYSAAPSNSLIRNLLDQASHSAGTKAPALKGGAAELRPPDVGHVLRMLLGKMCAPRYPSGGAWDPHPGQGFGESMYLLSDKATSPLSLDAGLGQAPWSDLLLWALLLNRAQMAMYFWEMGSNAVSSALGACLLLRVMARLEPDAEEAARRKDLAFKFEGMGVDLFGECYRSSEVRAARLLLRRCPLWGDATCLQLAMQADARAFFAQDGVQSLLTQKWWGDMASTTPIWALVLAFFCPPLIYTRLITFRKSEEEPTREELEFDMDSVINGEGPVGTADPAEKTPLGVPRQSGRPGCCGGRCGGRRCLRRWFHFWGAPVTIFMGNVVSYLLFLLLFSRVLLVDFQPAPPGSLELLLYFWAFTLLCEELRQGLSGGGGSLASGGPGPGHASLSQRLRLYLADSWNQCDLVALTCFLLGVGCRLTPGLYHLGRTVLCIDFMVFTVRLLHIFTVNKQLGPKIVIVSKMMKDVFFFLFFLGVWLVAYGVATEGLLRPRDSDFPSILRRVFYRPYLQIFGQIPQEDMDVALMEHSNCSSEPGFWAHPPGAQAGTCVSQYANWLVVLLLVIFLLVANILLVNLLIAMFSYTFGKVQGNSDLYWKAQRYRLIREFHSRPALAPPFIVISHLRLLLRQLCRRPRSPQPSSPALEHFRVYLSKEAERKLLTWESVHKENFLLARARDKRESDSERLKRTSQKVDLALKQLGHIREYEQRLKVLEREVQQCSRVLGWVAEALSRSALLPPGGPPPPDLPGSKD
UniProt O14817: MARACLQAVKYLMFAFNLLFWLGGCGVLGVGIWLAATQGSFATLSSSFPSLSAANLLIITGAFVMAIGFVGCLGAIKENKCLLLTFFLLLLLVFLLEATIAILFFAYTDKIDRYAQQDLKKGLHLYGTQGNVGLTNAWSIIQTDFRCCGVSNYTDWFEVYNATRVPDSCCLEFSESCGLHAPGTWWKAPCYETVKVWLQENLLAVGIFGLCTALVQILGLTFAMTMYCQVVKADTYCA
UniProt Q96AY4: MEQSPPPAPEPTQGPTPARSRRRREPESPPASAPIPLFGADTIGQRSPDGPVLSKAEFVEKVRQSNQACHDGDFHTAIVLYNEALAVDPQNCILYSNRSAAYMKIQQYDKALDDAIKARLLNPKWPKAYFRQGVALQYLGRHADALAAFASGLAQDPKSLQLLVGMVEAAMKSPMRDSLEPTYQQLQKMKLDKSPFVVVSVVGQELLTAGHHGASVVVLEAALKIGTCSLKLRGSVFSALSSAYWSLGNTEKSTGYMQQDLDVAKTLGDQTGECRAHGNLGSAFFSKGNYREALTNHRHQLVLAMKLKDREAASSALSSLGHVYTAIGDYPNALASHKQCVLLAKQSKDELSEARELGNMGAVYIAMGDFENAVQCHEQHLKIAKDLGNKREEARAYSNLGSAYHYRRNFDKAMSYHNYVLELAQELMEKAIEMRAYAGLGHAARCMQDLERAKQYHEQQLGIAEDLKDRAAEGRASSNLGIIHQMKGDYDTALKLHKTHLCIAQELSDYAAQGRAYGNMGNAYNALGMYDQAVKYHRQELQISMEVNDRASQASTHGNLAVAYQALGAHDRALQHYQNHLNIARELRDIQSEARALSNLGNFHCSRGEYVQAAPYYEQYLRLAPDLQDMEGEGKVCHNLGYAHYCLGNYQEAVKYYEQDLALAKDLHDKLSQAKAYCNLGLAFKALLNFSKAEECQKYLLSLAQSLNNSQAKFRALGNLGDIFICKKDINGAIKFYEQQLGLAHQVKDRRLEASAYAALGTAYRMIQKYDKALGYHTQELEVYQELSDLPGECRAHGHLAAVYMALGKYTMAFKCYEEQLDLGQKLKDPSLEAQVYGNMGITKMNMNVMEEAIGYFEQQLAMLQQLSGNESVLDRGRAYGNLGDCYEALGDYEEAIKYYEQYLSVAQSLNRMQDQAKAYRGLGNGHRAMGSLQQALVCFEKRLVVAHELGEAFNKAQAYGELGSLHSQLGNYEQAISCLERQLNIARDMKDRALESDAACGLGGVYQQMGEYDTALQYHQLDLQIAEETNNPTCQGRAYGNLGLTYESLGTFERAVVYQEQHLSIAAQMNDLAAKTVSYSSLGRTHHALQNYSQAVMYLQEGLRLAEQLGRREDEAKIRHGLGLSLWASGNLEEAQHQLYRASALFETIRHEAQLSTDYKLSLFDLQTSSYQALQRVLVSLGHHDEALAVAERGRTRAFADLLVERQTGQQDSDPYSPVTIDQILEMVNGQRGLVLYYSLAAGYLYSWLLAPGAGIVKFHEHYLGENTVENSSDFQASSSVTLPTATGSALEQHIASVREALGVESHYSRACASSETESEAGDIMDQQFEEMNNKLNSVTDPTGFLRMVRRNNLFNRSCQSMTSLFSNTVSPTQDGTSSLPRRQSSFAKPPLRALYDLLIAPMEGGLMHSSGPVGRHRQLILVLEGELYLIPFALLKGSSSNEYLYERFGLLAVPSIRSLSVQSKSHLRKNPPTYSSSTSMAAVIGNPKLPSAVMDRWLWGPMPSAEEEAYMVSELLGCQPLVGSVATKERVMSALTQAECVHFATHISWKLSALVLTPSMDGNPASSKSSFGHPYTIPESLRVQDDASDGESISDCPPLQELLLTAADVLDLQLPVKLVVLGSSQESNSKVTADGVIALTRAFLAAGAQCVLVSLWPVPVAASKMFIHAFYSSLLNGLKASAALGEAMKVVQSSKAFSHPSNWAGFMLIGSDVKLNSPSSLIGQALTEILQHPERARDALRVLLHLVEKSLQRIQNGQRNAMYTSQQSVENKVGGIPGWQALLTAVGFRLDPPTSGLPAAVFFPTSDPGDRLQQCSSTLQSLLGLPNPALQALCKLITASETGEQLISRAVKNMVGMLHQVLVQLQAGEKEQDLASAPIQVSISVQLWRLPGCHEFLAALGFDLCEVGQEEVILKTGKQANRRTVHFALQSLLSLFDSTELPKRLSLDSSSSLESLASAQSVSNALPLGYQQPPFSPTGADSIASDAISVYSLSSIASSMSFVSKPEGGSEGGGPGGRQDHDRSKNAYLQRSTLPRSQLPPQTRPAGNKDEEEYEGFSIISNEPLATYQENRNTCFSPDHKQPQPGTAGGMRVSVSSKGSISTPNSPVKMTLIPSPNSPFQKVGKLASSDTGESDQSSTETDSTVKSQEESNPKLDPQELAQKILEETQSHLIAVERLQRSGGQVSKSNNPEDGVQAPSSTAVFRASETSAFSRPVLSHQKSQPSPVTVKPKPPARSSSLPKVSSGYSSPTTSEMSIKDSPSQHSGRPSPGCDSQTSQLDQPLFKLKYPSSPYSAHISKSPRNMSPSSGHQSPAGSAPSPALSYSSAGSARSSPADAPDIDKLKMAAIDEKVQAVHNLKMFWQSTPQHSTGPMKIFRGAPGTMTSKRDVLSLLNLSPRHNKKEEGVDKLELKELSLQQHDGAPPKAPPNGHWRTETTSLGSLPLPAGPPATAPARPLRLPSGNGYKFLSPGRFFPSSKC
UniProt Q629K1: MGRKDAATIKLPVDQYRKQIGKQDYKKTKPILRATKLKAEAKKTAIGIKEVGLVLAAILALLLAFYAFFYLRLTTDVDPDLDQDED
UniProt Q9UJT2: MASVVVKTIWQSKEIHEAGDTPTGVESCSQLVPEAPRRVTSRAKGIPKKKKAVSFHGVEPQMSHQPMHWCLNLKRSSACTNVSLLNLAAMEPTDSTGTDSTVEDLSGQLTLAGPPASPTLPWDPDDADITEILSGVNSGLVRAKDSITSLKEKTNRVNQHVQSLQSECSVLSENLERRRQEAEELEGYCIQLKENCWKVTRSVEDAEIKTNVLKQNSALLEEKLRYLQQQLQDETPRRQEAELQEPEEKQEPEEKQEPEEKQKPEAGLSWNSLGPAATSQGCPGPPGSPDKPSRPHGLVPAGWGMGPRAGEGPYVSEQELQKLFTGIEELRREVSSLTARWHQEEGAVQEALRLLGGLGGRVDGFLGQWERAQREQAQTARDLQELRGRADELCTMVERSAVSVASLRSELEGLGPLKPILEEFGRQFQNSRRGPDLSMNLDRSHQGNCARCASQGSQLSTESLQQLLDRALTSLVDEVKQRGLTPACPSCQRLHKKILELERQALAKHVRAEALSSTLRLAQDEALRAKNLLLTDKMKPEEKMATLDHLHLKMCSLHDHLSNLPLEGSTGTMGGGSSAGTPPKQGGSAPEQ
UniProt Q8N4P2: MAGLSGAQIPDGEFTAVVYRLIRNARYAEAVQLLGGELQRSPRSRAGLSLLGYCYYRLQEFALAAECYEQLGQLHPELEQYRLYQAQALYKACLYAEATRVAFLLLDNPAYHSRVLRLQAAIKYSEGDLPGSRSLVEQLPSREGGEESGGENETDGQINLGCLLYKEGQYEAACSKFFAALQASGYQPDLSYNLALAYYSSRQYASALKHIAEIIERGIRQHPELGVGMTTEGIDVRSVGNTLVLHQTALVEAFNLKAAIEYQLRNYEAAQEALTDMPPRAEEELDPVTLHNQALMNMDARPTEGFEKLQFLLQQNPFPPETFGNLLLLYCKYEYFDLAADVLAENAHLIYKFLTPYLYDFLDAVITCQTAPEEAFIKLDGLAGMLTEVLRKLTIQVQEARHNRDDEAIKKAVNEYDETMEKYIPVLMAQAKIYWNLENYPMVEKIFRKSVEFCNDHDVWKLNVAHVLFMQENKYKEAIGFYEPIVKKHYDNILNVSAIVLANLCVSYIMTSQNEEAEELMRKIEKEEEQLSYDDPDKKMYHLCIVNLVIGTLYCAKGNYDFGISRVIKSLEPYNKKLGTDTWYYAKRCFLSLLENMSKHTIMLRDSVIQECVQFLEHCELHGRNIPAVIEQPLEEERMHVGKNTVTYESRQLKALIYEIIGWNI
UniProt Q8IYL2: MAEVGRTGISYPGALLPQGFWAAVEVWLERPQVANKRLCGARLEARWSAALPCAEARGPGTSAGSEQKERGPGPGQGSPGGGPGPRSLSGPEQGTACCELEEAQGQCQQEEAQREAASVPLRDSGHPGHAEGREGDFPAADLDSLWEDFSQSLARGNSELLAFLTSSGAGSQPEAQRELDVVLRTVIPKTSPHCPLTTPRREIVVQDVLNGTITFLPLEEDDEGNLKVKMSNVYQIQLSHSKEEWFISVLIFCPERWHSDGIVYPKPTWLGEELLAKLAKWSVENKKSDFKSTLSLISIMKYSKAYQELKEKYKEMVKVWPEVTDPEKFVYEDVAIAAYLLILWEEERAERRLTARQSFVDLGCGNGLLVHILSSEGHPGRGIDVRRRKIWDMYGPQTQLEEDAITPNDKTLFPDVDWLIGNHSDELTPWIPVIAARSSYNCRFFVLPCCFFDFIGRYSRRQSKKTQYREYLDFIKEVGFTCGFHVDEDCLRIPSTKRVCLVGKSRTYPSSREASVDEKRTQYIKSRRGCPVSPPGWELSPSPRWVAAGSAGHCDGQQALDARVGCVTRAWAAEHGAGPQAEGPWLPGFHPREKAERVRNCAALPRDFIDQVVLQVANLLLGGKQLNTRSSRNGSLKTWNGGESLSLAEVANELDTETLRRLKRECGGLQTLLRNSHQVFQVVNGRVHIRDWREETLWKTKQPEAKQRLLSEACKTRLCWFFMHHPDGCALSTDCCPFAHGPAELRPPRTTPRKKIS
UniProt O00463: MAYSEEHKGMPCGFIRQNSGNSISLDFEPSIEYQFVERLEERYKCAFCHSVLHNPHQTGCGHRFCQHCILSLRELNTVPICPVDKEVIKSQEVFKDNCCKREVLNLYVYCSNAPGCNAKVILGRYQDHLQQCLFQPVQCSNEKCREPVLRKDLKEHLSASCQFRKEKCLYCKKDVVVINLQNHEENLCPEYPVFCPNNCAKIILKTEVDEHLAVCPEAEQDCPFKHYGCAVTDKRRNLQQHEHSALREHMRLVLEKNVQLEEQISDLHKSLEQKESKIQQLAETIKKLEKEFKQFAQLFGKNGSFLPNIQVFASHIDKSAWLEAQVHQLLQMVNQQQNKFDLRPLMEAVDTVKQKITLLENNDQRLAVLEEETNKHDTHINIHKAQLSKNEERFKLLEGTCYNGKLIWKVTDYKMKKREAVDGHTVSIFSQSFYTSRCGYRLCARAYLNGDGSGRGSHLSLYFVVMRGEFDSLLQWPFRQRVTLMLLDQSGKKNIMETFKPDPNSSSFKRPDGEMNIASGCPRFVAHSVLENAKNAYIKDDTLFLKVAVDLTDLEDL

log2 fold change, inactive:
TRPM4 (UniProt Q8TD43) -0.078, TSC22D3 isoform 3 (UniProt Q99576) 0.158, TTLL12 (UniProt V9GY16) 0.035, TSPAN4 (UniProt O14817) 0.006, TTC28 (UniProt Q96AY4) -0.011, TSC22D1 isoform 2 (UniProt Q15714) -0.03, TTC13 (UniProt Q8NBP0) 0.124, TRAM2 (UniProt Q15035) 0.082, TRPS1 isoform 2 (UniProt Q9UHF7) -0.258, TRIQK (UniProt Q629K1) -0.099, TRIM41 (UniProt Q8WV44) 0.12, TRMO (UniProt Q9BU70) -0.135, TSKS (UniProt Q9UJT2) 0.02, TRIM27 (UniProt P14373) 0.01, TRIM26 (UniProt Q12899) -0.143, TTBK2 (UniProt Q6IQ55) -0.021, TTC30B (UniProt Q8N4P2) 0.109, TRAF3IP1 (UniProt Q8TDR0) 0.05, TRMT44 (UniProt Q8IYL2) 0.013, TRIM68 (UniProt Q6AZZ1) -0.076, TRIOBP (UniProt Q9H2D6) -0.024, TRIM37 (UniProt O94972) 0.04, TSPAN31 (UniProt Q12999) -0.033

Compound: c1cn2cc(-c3ccc4cn[nH]c4c3)nc(Nc3ccc(N4CCOCC4)cc3)c2n1 [entospletinib]
Test: as above
Method in brief: as §1

log2 fold change, inactive:
TTC26 0.126, TRAF5 isoform 2 (UniProt O00463) -0.056, TTLL12 (UniProt V9GY16) 0.103, TSPAN4 (UniProt O14817) -0.01, TSC22D1 isoform 2 (UniProt Q15714) -0.314, TSPAN3 (UniProt O60637) -0.005, TRIQK (UniProt Q629K1) 0.181, TRIM41 (UniProt Q8WV44) 0.056, TRIB3 (UniProt Q96RU7) -0.042, TRMO (UniProt Q9BU70) -0.006, TSKS (UniProt Q9UJT2) -0.118, TRIM67 (UniProt Q6ZTA4) -0.013, TTBK2 (UniProt Q6IQ55) 0.324, TRUB2 (UniProt O95900) -0.025, TTC30B (UniProt Q8N4P2) -0.119, TRIM3 (UniProt O75382) -0.056, TRAF3IP1 (UniProt Q8TDR0) -0.061, TRIM16 (UniProt O95361) -0.153, TTF1 (UniProt Q15361) 0.028, TRIM68 (UniProt Q6AZZ1) 0.202, TRIOBP (UniProt Q9H2D6) -0.01, TTC21B (UniProt Q7Z4L5) 0.175, TRIM37 (UniProt O94972) -0.051
